For test [1], the target named is LILRB2-ECD-His (SinoBiological, Cat #: 14132-H08H-B) (Homo sapiens (Human)). Put plainly: competition ELISA: plate coated with ANGPTL2, biotinylated LILRB2 pre-incubated with titrated antibody, streptavidin-HRP and TMB, OD450.
Test [2] has the same target. As to the kind of experiment: competition ELISA: plate coated with MAG, biotinylated LILRB2 pre-incubated with titrated antibody, streptavidin-HRP and TMB, OD450. A general note: In an ELISA, binding on a coated surface is turned into a signal by an enzyme label.
Test [3] shares this target. Put plainly: competition ELISA: plate coated with CD1C, biotinylated LILRB2 pre-incubated with titrated antibody, streptavidin-HRP and TMB, OD450.
For test [4] the target is unchanged. Put plainly: competition ELISA: plate coated with SEMA4A, biotinylated LILRB2 pre-incubated with titrated antibody, streptavidin-HRP and TMB, OD450.
Test [5] shares this target. Put plainly: competition ELISA: plate coated with ANGPTL5, biotinylated LILRB2 pre-incubated with titrated antibody, streptavidin-HRP and TMB, OD450.
For test [6], the target named is cynomolgus monkey putative LILRB2 (antigen of the Gator measurement) (cynomolgus monkey). As to the kind of experiment: BLI (Gator), cyno RB2-his.
In test [7] the target is LILRB2-ECD-His (SinoBiological, Cat #: 14132-H08H-B) (Homo sapiens (Human)). Put plainly: competition ELISA: plate coated with CD1D, biotinylated LILRB2 pre-incubated with titrated antibody, streptavidin-HRP and TMB, OD450.

These are yes or no findings as the source states them, for the method shown. For some assays here: Binding can be weak; no strength is given.

B1: D2M002-126 (antibody, V domains shown)
VH: QVQLVQSGAEVKKPGASVKVSCKASGYTFTSYWIEWVRQAPGQGLEWIGEILPGDESTNYNAKFKGRVTFTTDTSTSTAYMELRSLRSDDTAVYYCARSGAGGYDSGAFAYWGQGTLVTVSS
VL: AIQLTQSPSSLSASVGDRVTITCRASESVDTYGNSFMHWYQQKPGKAPKLLVYRTSNLESGVPSRFSGSGSGTDFTLTISSLQPEDFATYYCQQSNEDPWTFGGGTKVEIK
On to B1, for which the binding result in test [1] was “binds”; in test [2] it was “binds”; in test [3], “binds”; in test [4], “binds”; in test [5] it was “binds”; in test [6] it was “no binding”. Further, in test [7], the binding entry is recorded as “binds”.

B2: D2M002-026 (antibody, V domains shown)
VH: QVQLQQPGAELMKPGASVKISCKATGYTFSSYWIEWVKQRPGHGLEWIGEILPGDGSTNYNAKFKGQATFTADTSSNTAYMQFSSLTSEDSAVYYCARSGAGGYDSGAFAYWGQGTLVTVSS
VL: DIVLTQSPASLAVSLGQRATISCRASESVDTYGNSFMHWYQQKPGQPPKLLVYRTSNLESGIPARFSGSGSGTDFTLTINPVEADDVATYYCQQSNEDPWTFGGGTKLEIK
Turning to B2, the binding result in test [6] is on record as “no binding”.

Source of the values: patent publication US20250171534A1.
